This is one part of the list. Only hits are listed; about a third recur on repeated control peptides.
How the values were obtained:
Assay in all cases: PRISMA enrichment of interactor (LFQ) in peptide spot vs all other peptide spots (log2 fold change); higher = stronger / more specific binding of the interactor to the peptide
CYB5R3, P00387 = molecular target: CYB5R3, P00387
Protocol: (§1)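 PRISMA: 15-aa overlapping tiles (offset 8 aa) of 60 microproteins, plus SOS1/GLUT1 control peptides, were spot-synthesized on cellulose membranes in triplicate. Membranes were incubated with benzonase-treated HEK293T lysate, and bound proteins were identified by LC-MS/MS with LFQ. Enrichment is the log2 fold change of each protein in one spot versus all other spots. Only interactors passing the significance cutoff are listed.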

ECD, O95905 = molecular target: ECD, O95905
Protocol: as §1

FRYL, O94915 = molecular target: FRYL, O94915
Protocol: as §1

PRDX2, P32119 = molecular target: PRDX2, P32119
Protocol: as §1

DAP3, P51398 = molecular target: DAP3, P51398
Protocol: as §1

DDX5, P17844 = molecular target: DDX5, P17844
Protocol: as §1

GMNN, O75496 = molecular target: GMNN, O75496
Protocol: as §1

GNPDA1, P46926 = molecular target: GNPDA1, P46926
Protocol: as §1

MTX1, Q13505 = molecular target: MTX1, Q13505
Protocol: as §1

NDUFV1, P49821 = molecular target: NDUFV1, P49821
Protocol: as §1

PDCD5, O14737 = molecular target: PDCD5, O14737
Protocol: as §1

PFDN6, O15212 = molecular target: PFDN6, O15212
Protocol: as §1

RAB7A, P51149 = molecular target: RAB7A, P51149
Protocol: as §1

SEC63, Q9UGP8 = molecular target: SEC63, Q9UGP8
Protocol: as §1

STRIP1, Q5VSL9 = molecular target: STRIP1, Q5VSL9
Protocol: as §1

DCD, P81605 = molecular target: DCD, P81605
Protocol: as §1

DDX31, Q9H8H2 = molecular target: DDX31, Q9H8H2
Protocol: as §1

DSTN, P60981 = molecular target: DSTN, P60981
Protocol: as §1

FN1, P02751 = molecular target: FN1, P02751
Protocol: as §1

HERC5, Q9UII4 = molecular target: HERC5, Q9UII4
Protocol: as §1

NELFE, P18615 = molecular target: NELFE, P18615
Protocol: as §1

NTMT1, Q9BV86 = molecular target: NTMT1, Q9BV86
Protocol: as §1

NUP50, Q9UKX7 = molecular target: NUP50, Q9UKX7
Protocol: as §1

PPP4R2, Q9NY27 = molecular target: PPP4R2, Q9NY27
Protocol: as §1

RANBP3, Q9H6Z4 = molecular target: RANBP3, Q9H6Z4
Protocol: as §1

RBM7, Q9Y580 = molecular target: RBM7, Q9Y580
Protocol: as §1

RRS1, Q15050 = molecular target: RRS1, Q15050
Protocol: as §1

TMEM201, Q5SNT2 = molecular target: TMEM201, Q5SNT2
Protocol: as §1

UQCRFS1, P47985 = molecular target: UQCRFS1, P47985
Protocol: as §1

DCTN1, Q14203 = molecular target: DCTN1, Q14203
Protocol: as §1

IPO9, Q96P70 = molecular target: IPO9, Q96P70
Protocol: as §1

LSM12, Q3MHD2 = molecular target: LSM12, Q3MHD2
Protocol: as §1

NSA2, O95478 = molecular target: NSA2, O95478
Protocol: as §1

SF3A3, Q12874 = molecular target: SF3A3, Q12874
Protocol: as §1

DCTN2, Q13561 = molecular target: DCTN2, Q13561
Protocol: as §1

FXR2, P51116 = molecular target: FXR2, P51116
Protocol: as §1

MTREX, P42285 = molecular target: MTREX, P42285
Protocol: as §1

NUP160, Q12769 = molecular target: NUP160, Q12769
Protocol: as §1

PPIL4, Q8WUA2 = molecular target: PPIL4, Q8WUA2
Protocol: as §1

SNRPF, P62306 = molecular target: SNRPF, P62306
Protocol: as §1

TXNDC5, Q8NBS9 = molecular target: TXNDC5, Q8NBS9
Protocol: as §1

## VKQRVLFVEKKKIRS [MRPL33]
CYB5R3, P00387
  PRISMA enrichment of interactor (log2): 4.53
ECD, O95905
  PRISMA enrichment of interactor (log2): 4.4
FRYL, O94915
  PRISMA enrichment of interactor (log2): 4.17
PRDX2, P32119
  PRISMA enrichment of interactor (log2): 5.56

## AGISFIGVHLGTYFL [MKKS_2]
DAP3, P51398
  PRISMA enrichment of interactor (log2): 6.05
DDX5, P17844
  PRISMA enrichment of interactor (log2): 4.95
GMNN, O75496
  PRISMA enrichment of interactor (log2): 4.39
GNPDA1, P46926
  PRISMA enrichment of interactor (log2): 4.83
MTX1, Q13505
  PRISMA enrichment of interactor (log2): 4.04
NDUFV1, P49821
  PRISMA enrichment of interactor (log2): 5.52
PDCD5, O14737
  PRISMA enrichment of interactor (log2): 4.71
PFDN6, O15212
  PRISMA enrichment of interactor (log2): 4.24
RAB7A, P51149
  PRISMA enrichment of interactor (log2): 5.51
SEC63, Q9UGP8
  PRISMA enrichment of interactor (log2): 5.07
STRIP1, Q5VSL9
  PRISMA enrichment of interactor (log2): 3.82

## GEAAAAAAAGFGAAG [TUG1]
DCD, P81605
  PRISMA enrichment of interactor (log2): 7.51
DDX31, Q9H8H2
  PRISMA enrichment of interactor (log2): 8.56
DSTN, P60981
  PRISMA enrichment of interactor (log2): 6.27
FN1, P02751
  PRISMA enrichment of interactor (log2): 4.6
HERC5, Q9UII4
  PRISMA enrichment of interactor (log2): 4.08
NELFE, P18615
  PRISMA enrichment of interactor (log2): 6.2
NTMT1, Q9BV86
  PRISMA enrichment of interactor (log2): 5.76
NUP50, Q9UKX7
  PRISMA enrichment of interactor (log2): 3.76
PPP4R2, Q9NY27
  PRISMA enrichment of interactor (log2): 4.87
RANBP3, Q9H6Z4
  PRISMA enrichment of interactor (log2): 4.59
RBM7, Q9Y580
  PRISMA enrichment of interactor (log2): 4.91
RRS1, Q15050
  PRISMA enrichment of interactor (log2): 5.36
TMEM201, Q5SNT2
  PRISMA enrichment of interactor (log2): 4.47
UQCRFS1, P47985
  PRISMA enrichment of interactor (log2): 6.98

## ASRETRKWTPWLLES [C5orf56]
DCTN1, Q14203
  PRISMA enrichment of interactor (log2): 5.03
IPO9, Q96P70
  PRISMA enrichment of interactor (log2): 7.34
LSM12, Q3MHD2
  PRISMA enrichment of interactor (log2): 4.91
NSA2, O95478
  PRISMA enrichment of interactor (log2): 5.5
SF3A3, Q12874
  PRISMA enrichment of interactor (log2): 4.59

## GTTCEMKDLRCCIGS [LINC00881]
DCTN2, Q13561
  PRISMA enrichment of interactor (log2): 3.9
DDX31, Q9H8H2
  PRISMA enrichment of interactor (log2): 4.78
FXR2, P51116
  PRISMA enrichment of interactor (log2): 6.62
MTREX, P42285
  PRISMA enrichment of interactor (log2): 6.19
NUP160, Q12769
  PRISMA enrichment of interactor (log2): 4.5
PPIL4, Q8WUA2
  PRISMA enrichment of interactor (log2): 4.27
SNRPF, P62306
  PRISMA enrichment of interactor (log2): 5.39
TXNDC5, Q8NBS9
  PRISMA enrichment of interactor (log2): 5.24

Reference: the supplement of paper PMC10032668
